Reference: paper PMC7864077
No constants are given. Whether binding was seen depends on the method and setting. Some results given as binding are weak or reduced against the parent protein; the word gives no strength.

The chains behind the UniProt entries cited, without tags or fusion partners.
UniProt P17931: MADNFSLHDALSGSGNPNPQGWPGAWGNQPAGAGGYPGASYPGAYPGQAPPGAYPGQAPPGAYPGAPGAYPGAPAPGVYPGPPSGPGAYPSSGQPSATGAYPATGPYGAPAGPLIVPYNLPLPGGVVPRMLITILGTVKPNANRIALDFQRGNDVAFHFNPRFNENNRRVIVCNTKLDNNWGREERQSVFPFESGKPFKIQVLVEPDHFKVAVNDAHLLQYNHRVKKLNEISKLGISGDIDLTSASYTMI

Legend:
[1] = target: GST-Gal-3 (UniProt P17931); experiment: pull-down; GST-Gal-3 held on GSH magnetic-agarose beads with purified CD133 in lysis buffer (150 mM NaCl, 100 mM Tris pH 8.0, 0.5% Triton X-100, 1 mM EDTA); Western blotting; both purified
[2] = target: GST-Gal-3 (UniProt P17931); experiment: pull-down; as a1, with 0.1 M lactose added to the system for competitive inhibition; both purified

binding [1]: binds
B1: CD133 (receptor, UniProt O43490 20-865)
chain: GGQPSSTDAPKAWNYELPATNYETQDSHKAGPIGILFELVHIFLYVVQPRDFPEDTLRKFLQKAYESKIDYDKPETVILGLKIVYYEAGIILCCVLGLLFIILMPLVGYFFCMCRCCNKCGGEMHQRQKENGPFLRKCFAISLLVICIIISIGIFYGFVANHQVRTRIKRSRKLADSNFKDLRTLLNETPEQIKYILAQYNTTKDKAFTDLNSINSVLGGGILDRLRPNIIPVLDEIKSMATAIKETKEALENMNSTLKSLHQQSTQLSSSLTSVKTSLRSSLNDPLCLVHPSSETCNSIRLSLSQLNSNPELRQLPPVDAELDNVNNVLRTDLDGLVQQGYQSLNDIPDRVQRQTTTVVAGIKRVLNSIGSDIDNVTQRLPIQDILSAFSVYVNNTESYIHRNLPTLEEYDSYWWLGGLVICSLLTLIVIFYYLGLLCGVCGYDRHATPTTRGCVSNTGGVFLMVGVGLSFLFCWILMIIVVLTFVFGANVEKLICEPYTSKELFRVLDTPYLLNEDWEYYLSGKLFNKSKMKLTFEQVYSDCKKNRGTYGTLHLQNSFNISEHLNINEHTGSISSELESLKVNLNIFLLGAAGRKNLQDFAACGIDRMNYDSYLAQTGKSPAGVNLLSFAYDLEAKANSLPPGNLRNSLKRDAQTIKTIHQQRVLPIEQSLSTLYQSVKILQRTGNGLLERVTRILASLDFAQNFITNNTSSVIIEETKKYGRTIIGYFEHYLQWIEFSISEKVASCKPVATALDTAVDVFLCSYIIDPLNLFWFGIGKATVFLLPALIFAVKLAKYYRRMDSEDVYDDVETIPMKNMENGNNGYHKDHVYGIHNPVMTSPSQH
binding [2]: no binding (condition: with 0.1 M lactose)
